Patent US12382955B2, “Peroxyformic acid compositions for membrane filtration cleaning in energy services” (priority 2016, dated 2025)

Assay: Membrane compatibility, simulated exposure soak, clean water flux and salt rejection (Example 4)
Details: Koch HRX, PFA 300 ppm, 77 F, 2000 ppm NaCl
Protocol: The effects of PFA on reverse osmosis members which contain a polyamide structure in comparison with known control chemicals were tested. Three different membranes were tested including Koch HRX, Hydranautics CPA5 and Hydranautics ESPA2+. Membranes were soaked in duplicate, in chemistries according to Table 4.
Membranes were then conditioned in Ultrasil 110 at a pH of 11 for 90 minutes at 50° C., followed by a rinse in DI water.
Each of the chemistries, with the exception of PFA was refreshed daily. PFA was refreshed hourly. After the simulated exposure the membranes are rinsed with DI water and placed on the Flat Sheet Membrane skid (Model M20). The membranes were rinsed with DI water for 24 hours at standard UF pressure and temperature. Once 24 hours was completed the membranes were subjected to alkaline conditioning step until solution pH is 11. 15.14 grams of NaCl was added to the recirculating water (2000 ppm NaCl) and the system was allowed to continue circulating. The conductivity of each permeate tube and feed was then measured and recorded and shown as percent rejection. The percent rejection was determined by (conductivity of the feed−conductivity of the permeate)/(conductivity of the feed).

## O=COO [PFA, peroxyformic acid]
Simulated 1 year, 78 hr soak
  Salt Rejection (%) PFA 1 YR: 91.26%
Simulated 3 years, 234 hr soak
  Salt Rejection (%) PFA 3 YR: 87.50%
